Results on 1 substance are retold here after patent US20040063910A1.

Amino acid sequences for entries named in this document (tags omitted). Residues count along the entry.
UniProt P09038, residues 143-288: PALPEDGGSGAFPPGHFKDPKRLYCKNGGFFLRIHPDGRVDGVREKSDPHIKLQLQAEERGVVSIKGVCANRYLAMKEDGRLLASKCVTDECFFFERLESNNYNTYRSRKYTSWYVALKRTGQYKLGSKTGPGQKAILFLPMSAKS
UniProt P11362, residues 22-376: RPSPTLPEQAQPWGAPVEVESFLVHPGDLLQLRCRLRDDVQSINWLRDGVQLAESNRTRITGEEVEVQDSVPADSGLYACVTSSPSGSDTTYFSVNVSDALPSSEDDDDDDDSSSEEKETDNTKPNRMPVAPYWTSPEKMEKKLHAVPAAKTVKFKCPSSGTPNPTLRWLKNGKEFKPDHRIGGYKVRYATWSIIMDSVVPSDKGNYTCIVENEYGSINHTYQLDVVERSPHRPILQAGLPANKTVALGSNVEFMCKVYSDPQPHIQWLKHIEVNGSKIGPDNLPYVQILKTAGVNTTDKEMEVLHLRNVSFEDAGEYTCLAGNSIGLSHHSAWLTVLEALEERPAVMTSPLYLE

No constants are given. Whether binding was seen depends on the method and setting. Some binding calls cover weakened binding; strength is not graded here.

Assay [1] has as its target basic FGF (bFGF) (UniProt P09038). Briefly: competition of 125I-bFGF binding to plate-coated Construct #1.
The target is the same in assay [2]. Description: competition of 125I-bFGF binding to HEK293 cells overexpressing FGFR1.

With “FGFR monomer (U.S. Pat. No. 5,229,501) (from UniProt P11362 22-376) (receptor)”, the binding result with basic FGF (bFGF) [1] and with basic FGF (bFGF) [2] was “binds” in each case.
